Results from patent publication EP1826280A2 (priority 1992, dated 1994).

Tested on: vascular smooth muscle cells
Assay: 24 hour 3H-leucine protein inhibition and 3H-thymidine DNA synthesis inhibition assays
Type: cell-based
Conditions: 24 hour exposure; in the presence of 5% FBS
Method: The ability of various therapeutic agents to inhibit DNA synthesis and protein synthesis in vascular smooth muscle cells was tested. ^3H-leucine and ^3H-thymidine uptake and cytotoxicity assays were conducted in accordance with the following protocols.
^3H-leucine uptake: Vascular smooth muscle cells at 40,000 cells/ml were seeded in sterile 24 well plates at 1ml/well. The plates were incubated overnight at 37°C, 5% CO2, 95% air in a humidified atmosphere (saturation). Log dilutions of the therapeutic agent of interest were incubated with the vascular smooth muscle cells for 5 minutes or 24 hours. […] Vials were counted on a Beckman LS2600 Liquid scintillation Counter interfaced with Beckman "Data Capture" software for conversion to a Lotus 1-2-3® file and analysis using Lotus 1-2-3®.
^3H-thymidine uptake: Vascular smooth muscle cells were incubated in complete media with 5% FBS (Gibco) overnight at 37°C in a humidified, 5% CO2 environment in sterile 24 well plates. […] The cells were visually scored for viability and cell number. […] Vials were counted on a Beckman LS2800 Liquid Scintillation counter interfaced with Beckman "Data Capture" software for conversion to a Lotus 1-2-3® file and analysis using Lotus 1-2-3®.

CN[C@@H]1C[C@H]2O[C@@](C)([C@@H]1OC)n1c3ccccc3c3c4c(c5c6ccccc6n2c5c31)C(=O)NC4 [staurosporin]
inhibition of DNA synthesis compared with protein synthesis: to a greater extent than they inhibited protein synthesis
